Results taken from US20030068613A1, “Method for studying regeneration in biological material” (priority 2000, published 2003).
At least one compound was matched to its structure with a doubt left.

System: co-culture of entorhinal cortex and dentate gyrus (perforant pathway)
Test: Regeneration of the lesioned perforant pathway in entorhinal cortex/dentate gyrus co-cultures on a micro-electrode array
Assay type: cell-based, Wistar rats or BalbC mice
Conditions: one instance; co-culture on MEA, after lesion

## C=CC[C@@H]1/C=C(\C)C[C@H](C)C[C@H](OC)[C@H]2O[C@@](O)(C(=O)C(=O)N3CCCC[C@H]3C(=O)O[C@H](/C(C)=C/[C@@H]3CC[C@@H](O)[C@H](OC)C3)[C@H](C)[C@@H](O)CC1=O)[C@H](C)C[C@@H]2OC [FK506]
  regeneration of the perforant pathway in a lesioned co-culture: regenerated the perforant pathway
